This is an account of results in paper PMC6884526.

One experiment has as its target T1, GFP-Snapin-S50D (UniProt P60192).
T1 sequence: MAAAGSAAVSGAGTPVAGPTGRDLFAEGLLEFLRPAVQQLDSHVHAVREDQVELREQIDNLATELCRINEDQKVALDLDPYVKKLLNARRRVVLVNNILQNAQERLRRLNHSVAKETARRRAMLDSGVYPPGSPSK
As to the kind of experiment: co-IP; heterologous, HEK293T lysate, lysis buffer without SDS; GFP-Snapin forms precipitated with anti-GFP magnetic beads.

In the next experiment the target is T2, GFP-Snapin-S50A (UniProt P60192).
T2 sequence: T1 sequence with D50A
The experiment is described as above.

Residue numbers refer to the chain shown, from its start. No constants are given. Whether binding was seen depends on the method and setting. In cells and extracts the contact can be indirect. For some assays here: Binding can be weak; no strength is given. Tags and fused reporters may be left off the sequences shown.

As for “dynein intermediate chain (endogenous, HEK293T) (human (endogenous in HEK293T))”, the binding result with GFP-Snapin-S50D is listed as “no binding”; with GFP-Snapin-S50A it was “binds”.
